Measured values from publication doi:10.1101/723718.
These are yes or no findings as the source states them, for the method shown. In cells and extracts the contact can be indirect. For some assays here: Sequences can lack the tags named with a protein.

Assays:
[1] = target: T1, FADD (overexpressed, Figure 4C), Q13158; assay: co-IP; conditions: remark: other sources report otherwise
T1 chain: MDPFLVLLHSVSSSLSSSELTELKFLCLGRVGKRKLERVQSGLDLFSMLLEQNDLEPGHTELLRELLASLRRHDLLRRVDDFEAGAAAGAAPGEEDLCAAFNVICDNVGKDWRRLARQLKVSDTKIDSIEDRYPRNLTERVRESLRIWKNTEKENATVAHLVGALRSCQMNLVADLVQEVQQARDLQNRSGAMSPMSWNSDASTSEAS

[2] = target: T2, Flag-tagged procaspase-8, Q14790; assay: co-IP; conditions: remark: other sources report otherwise
T2 chain: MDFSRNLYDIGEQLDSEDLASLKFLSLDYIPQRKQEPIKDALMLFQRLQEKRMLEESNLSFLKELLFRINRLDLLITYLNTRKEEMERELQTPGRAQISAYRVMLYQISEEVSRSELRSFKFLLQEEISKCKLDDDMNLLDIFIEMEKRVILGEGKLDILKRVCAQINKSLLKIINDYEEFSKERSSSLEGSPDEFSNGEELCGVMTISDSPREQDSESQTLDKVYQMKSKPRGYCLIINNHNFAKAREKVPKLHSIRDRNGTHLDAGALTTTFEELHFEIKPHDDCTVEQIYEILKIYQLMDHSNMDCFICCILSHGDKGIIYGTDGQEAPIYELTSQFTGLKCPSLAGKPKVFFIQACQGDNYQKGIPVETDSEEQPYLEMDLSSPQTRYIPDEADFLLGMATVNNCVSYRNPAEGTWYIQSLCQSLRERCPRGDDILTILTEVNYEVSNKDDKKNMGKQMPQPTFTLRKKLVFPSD

binding [1]: no binding
binding [2]: no binding
B1: endogenous TRAF2, Q12933 1-501 (protein)
chain: MAAASVTPPGSLELLQPGFSKTLLGTKLEAKYLCSACRNVLRRPFQAQCGHRYCSFCLASILSSGPQNCAACVHEGIYEEGISILESSSAFPDNAARREVESLPAVCPSDGCTWKGTLKEYESCHEGRCPLMLTECPACKGLVRLGEKERHLEHECPERSLSCRHCRAPCCGADVKAHHEVCPKFPLTCDGCGKKKIPREKFQDHVKTCGKCRVPCRFHAIGCLETVEGEKQQEHEVQWLREHLAMLLSSVLEAKPLLGDQSHAGSELLQRCESLEKKTATFENIVCVLNREVERVAMTAEACSRQHRLDQDKIEALSSKVQQLERSIGLKDLAMADLEQKVLEMEASTYDGVFIWKISDFARKRQEAVAGRIPAIFSPAFYTSRYGYKMCLRIYLNGDGTGRGTHLSLFFVVMKGPNDALLRWPFNQKVTLMLLDQNNREHVIDAFRPDVTSSSFQRPVNDMNIASGCPLFCPVSKMEAKNSYVRDDAIFIKAIVDLTGL
